Data as given in patent publication US4096112A, “2-Phenyl-indole derivative stabilizers for PVC resins” (Labaz, priority 1976, dated 1978).

Assay: Static thermostability of the stabilized resin, simplified method (GARDNER sub-scale in polyvinyl chloride sheets)
Settings: Compound A, 210° C
Protocol: These studies were performed with five different formulae of vinyl resins (hereinafter referred to as Compounds).
The different Compounds were mixed and calendered in a mixer of which the cylinders were heated to 160° C. The rigid sheets so obtained were then heated in an oven to a temperature between 180° C and 215° C, until incipient carbonization.
A stove with rotating drums, ventilated and equipped with a thermostat was used for this operation. In the trials described hereunder, the behaviour of the sheets containing one of the stabilizers to be tested was compared to that of sheets of the same formulae but containing 2-phenylindole as stabilizer.
(2) It is also possible to use a simplified method which is more rapid and with which valid results are also obtained: A reference scale is drawn up with sheets of thermally treated polyvinyl chloride, of which the colorations have been definitely determined in GARDNER degrees as above.
A GARDNER sub-scale is thus obtained in polyvinyl chloride sheets which can be directly compared to the sheets to be tested without using the comparator.

| SMILES | Coloration of sheet (0 min) | Coloration of sheet (3 min) | Coloration of sheet (6 min) | Coloration of sheet (9 min) | Coloration of sheet (12 min) | Coloration of sheet (15 min) | Coloration of sheet (18 min) | Burning of sheet along its edges (after 15 minutes) |
| --- | --- | --- | --- | --- | --- | --- | --- | --- |
| COc1ccc(-c2cc3ccccc3[nH]2)cc1OC [Stabilizer 36, 2-(3',4'-dimethoxy-phenyl)-indole] | 1 GARDNER degrees | 1 GARDNER degrees | 2 GARDNER degrees | 3 GARDNER degrees | 7 GARDNER degrees | 8 GARDNER degrees | – | – |
| CCOc1ccc(-c2cc3ccccc3[nH]2)cc1OCC [Stabilizer 28, 2-(3'4'-diethoxy-phenyl)-indole] | 1 GARDNER degrees | 1 GARDNER degrees | 2 GARDNER degrees | 2 GARDNER degrees | 10 GARDNER degrees | 13 GARDNER degrees | Burnt | – |
| c1ccc2[nH]c(-c3ccc4c(c3)OCO4)cc2c1 [Stabilizer 33, 2-(3',4'-methylenedioxy-phenyl)-indole] | 1 GARDNER degrees | 1 GARDNER degrees | 2 GARDNER degrees | 5 GARDNER degrees | 11 GARDNER degrees | 13 GARDNER degrees | Burnt | – |
| COc1c(C)cc(-c2cc3ccccc3[nH]2)cc1C [Stabilizer 17, 2-(3',5'-dimethyl-4'-methoxy-phenyl)-indole] | 1 GARDNER degrees | 1 GARDNER degrees | 1 GARDNER degrees | 3 GARDNER degrees | 6 GARDNER degrees | 8 GARDNER degrees | 12 GARDNER degrees | – |
| c1ccc2[nH]c(-c3ccc4c(c3)OCCO4)cc2c1 [Stabilizer 34, 2-(3',4'-ethylenedioxy-phenyl)-indole] | 1 GARDNER degrees | 1 GARDNER degrees | 2 GARDNER degrees | 5 GARDNER degrees | 10 GARDNER degrees | 13 GARDNER degrees | Burnt | – |
| CC(C)c1cc(-c2cc3ccccc3[nH]2)ccc1O [Stabilizer 20, 2-(3'-isopropyl-4'-hydroxy-phenyl)-indole] | 1 GARDNER degrees | 1 GARDNER degrees | 3 GARDNER degrees | 6 GARDNER degrees | 10 GARDNER degrees | 11 GARDNER degrees | Burnt | – |
| CCOc1ccc(-c2cc3ccccc3[nH]2)cc1OC [Stabilizer 23, 2-(3'-methoxy-4'-ethoxy-phenyl)-indole] | 1 GARDNER degrees | 1 GARDNER degrees | 2 GARDNER degrees | 2 GARDNER degrees | 3 GARDNER degrees | 9 GARDNER degrees | Burnt | – |
| COc1cc(OC)cc(-c2cc3ccccc3[nH]2)c1 [Stabilizer 3, 2-(3',5'-dimethyoxy-phenyl)-indole] | 1 GARDNER degrees | 1 GARDNER degrees | 2 GARDNER degrees | 3 GARDNER degrees | 8 GARDNER degrees | 11 GARDNER degrees | – | the test sheet was not |
| Cc1cc(-c2cc3ccccc3[nH]2)ccc1OCc1ccccc1 [Stabilizer 32, 2-(3'-methyl-4'-benzyloxy-phenyl)-indole] | 1 GARDNER degrees | 1 GARDNER degrees | 4 GARDNER degrees | 4 GARDNER degrees | 11 GARDNER degrees | 13 GARDNER degrees | Burnt | – |
